The source of these data is publication PMC12747936, “Rhamnose alleviates the proinflammatory response during endotoxemia via the CEACAM1/LGALS9-p38 axis” (Acta Biochimica et Biophysica Sinica, 2025).

Sequences of proteins named here, by UniProt entry; tags and fusion partners are left off. Residues count along the entry.
UniProt P13688, residues 35-526: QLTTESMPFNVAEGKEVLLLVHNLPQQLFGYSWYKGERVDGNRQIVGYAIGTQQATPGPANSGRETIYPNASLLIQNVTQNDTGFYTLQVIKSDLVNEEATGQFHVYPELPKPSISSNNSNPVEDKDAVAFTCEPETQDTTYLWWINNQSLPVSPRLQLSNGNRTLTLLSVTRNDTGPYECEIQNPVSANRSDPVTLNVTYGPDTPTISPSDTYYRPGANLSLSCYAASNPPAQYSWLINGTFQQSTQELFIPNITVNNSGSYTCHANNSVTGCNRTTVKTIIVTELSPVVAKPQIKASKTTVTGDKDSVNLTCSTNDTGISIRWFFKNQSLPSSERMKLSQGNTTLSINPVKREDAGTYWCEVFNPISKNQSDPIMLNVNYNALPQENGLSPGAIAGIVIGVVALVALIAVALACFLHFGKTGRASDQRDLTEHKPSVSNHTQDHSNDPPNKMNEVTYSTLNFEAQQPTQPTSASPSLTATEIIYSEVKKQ

The target of test [1] is carcinoembryonic antigen-associated cell adhesion molecule 1 (CEACAM1), endogenous (human (endogenous in THP-1)) (UniProt P13688). Kind of test: co-IP; endogenous proteins in THP-1-dM lysates; cells treated with LPS (500 ng/mL) with or without rhamnose (20 uM) for 15 min; lysates incubated overnight at 4°C with anti-CEACAM1 (or anti-LGALS9) antibody, protein A/G agarose 3 h at 4°C, five washes with lysis buffer; western blot for p-Tyr and LGALS9. In general terms: A western blot detects proteins with antibodies after separation by electrophoresis.

A further test has as its target Flag-tagged WT CEACAM1 (UniProt P13688). Kind of test: co-IP; THP1-dMs cotransfected with HA-LGALS9 and Flag-CEACAM1 (WT or mutant), with or without rhamnose (20 uM); lysates incubated with anti-Flag magnetic beads overnight at 4°C, three washes with TBS; western blot.

These are yes or no findings as the source states them, for the method shown. In cells and extracts the contact can be indirect. Some binding calls cover weakened binding; strength is not graded here.

Regarding “galectin 9 (LGALS9), endogenous (from UniProt O00182 1-355)”, in test [1], the binding entry is recorded as “binds”.

In the case of “HA-tagged LGALS9 (from UniProt O00182-1 1-355)”, the binding result in the test with Flag-tagged WT CEACAM1 is reported as “binds”.
